In PubChem BioAssay AID2685 (National Center for Advancing Translational Sciences (NCATS), 2010) one finds cell number change and AC50 data, which are given here for 58 compounds.

Molecules are shown by their SMILES. Some of the results follow. These are further read-outs of the screen, such as a control signal, another cell line or another target. No call is given for them. The list favours compounds with an active or inconclusive main result. Potencies come from curve fits of mixed quality, noted in brackets.

The nature of this test: qHTS Assay for Lipid Storage Modulators in Drosophila S3 Cells.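 On cell number change: cells counted by Cell Tracker Red CMTPX staining in the red channel.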 The following applies: BODIPY lipid droplet fluorescence, 18-24 h; for cell number change: measured here: cell count max response, cells fed with added oleic acid. In short, it runs like this:
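Drosophila S3 cells got compounds at several concentrations plus oleic acid (400 uM solution). Laser-scanning cytometry with 488 nm excitation read lipid droplets at 500-530 nm and cells at 575-640 nm. Percent activity was relative to 20 uM Triacsin C.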
(qHTS replaces the single test concentration by a dilution series.)

Where [1] appears, read: measured here: cell number channel AC50, cells fed with added oleic acid.
The mark [2] stands for this setting: measured here: lipid fluorescence (Fed channel) AC50, cells fed with added oleic acid.

For orientation: AC50 means the concentration giving half of the maximal activity seen. A high value points to activity only at high concentration. As to `CC(Sc1nc(-c2ccccc2)cc(C(F)(F)F)n1)C(=O)N1CCCCC1` (centres undefined), the cell number change was -44.2%. Under setting [1], the AC50 was 29.1 µM [falling, single point]. Moreover, under setting [2], the AC50 was 5.8 µM [falling, full curve].
Turning to `CCCCCOC(=O)Nc1ccc(S(=O)(=O)Nc2cccc([N+](=O)[O-])c2)cc1`, the cell number change was -50.3%. Also, the AC50 under setting [1] was 16.4 µM [falling, single point].
As for `O=C(O)CCCN1C(=O)c2cccc3cccc(c23)C1=O`, the cell number change was determined as 3.86%.
Same read-out and setting: in the case of `O=C(/C=C/c1ccccc1[N+](=O)[O-])OC1CCCCC1=O` (centres undefined) it was 9.16%.
Consider `CCOC(=O)c1c(C)[nH]c(C(=O)COC(=O)CSCC(=O)N(CC)CC)c1C`, for which the cell number change was 5.31%. For the same compound, under setting [1], the AC50 was 0.00411 µM [rising, full curve, poor fit].
In the case of `O=C1Nc2ccc(Cl)cc2C12Nc1ccccc1-c1nnc(SCc3ccccc3F)nc1O2` (centres undefined), the cell number change was -14.4%. Further, the concentration at half-maximal activity (AC50) under setting [2] is 0.411 µM [falling, single point].
As for `CCCn1c(SCC(=O)NC2CCCC2)nnc1-c1cccnc1`, the cell number change was -1.3%. Also, the AC50 under setting [2] was 2.91 µM [rising, single point].
Turning to `O=c1[nH]sc2ccccc12`, the cell number change is -56.9%. Under setting [1], the AC50 was 1.3 µM [falling, full curve]. Also, the AC50 under setting [2] is 29.1 µM [falling, partial curve, poor fit].
`CC1CCCCC12NC(=O)N(CC(=O)Nc1sc3c(c1C(N)=O)CCC3)C2=O` (centres undefined): the cell number change stood at 67.5%. Also, the AC50 under setting [1] is 29.1 µM [rising, single point].
For the compound `CCOc1ncccc1C(=O)OCC(=O)Nc1nnc(-c2ccccc2)o1`, the cell number change is -16.8%.
As to `Cc1ccc(Cl)cc1N(Cc1ccc(C(=O)NCc2cccnc2)cc1)S(=O)(=O)c1ccccc1`, the cell number change was -24.7%. Moreover, under setting [2], the AC50 was 20.6 µM [falling, partial curve].
Consider `Cc1oc2ccc(OCC(N)=O)cc2c1C(=O)OC(C)C`, for which the AC50 under setting [2] is 0.082 µM [rising, full curve, poor fit].
For `CCN1CCN(C(=O)C2CCN(c3nnc(-n4c(C)ccc4C)s3)CC2)CC1`, the cell number change is -15.6%. For the same compound, the AC50 under setting [2] is 2.59 µM [falling, full curve, poor fit].
`COc1cc(-c2n[nH]c(=S)n2-c2cc(C(F)(F)F)ccc2Cl)cc(OC)c1OC`: the cell number change is -36.6%. Under setting [1], the AC50 is 0.517 µM [falling, full curve, poor fit].
For the compound `O=C(c1ccccc1)N1CCOC12CCN(c1ncc(C(F)(F)F)cc1Cl)CC2`, the cell number change was -2.49%. Also, the AC50 under setting [2] is 6.51 µM [rising, single point].
On to `CCOc1ccc(/C=C/C(=O)c2ccccc2)cc1`, for which the cell number change was 111%. Also, under setting [1], the AC50 was 23.1 µM [rising, single point]. For the same compound, the AC50 under setting [2] was 16.4 µM [rising, partial curve].
For `COC(=O)[C@H](C)NC(=O)NC1CCCc2ccccc21` (some centres undefined), the cell number change was determined as 31%. Under setting [1], the AC50 was 29.1 µM [rising, single point]. In addition, the AC50 under setting [2] is 0.259 µM [rising, partial curve].
On to `Cc1cc(C(=O)COC(=O)c2ccc(O)cc2O)c(C)n1-c1ccccc1`, for which the cell number change was -1.1%.
In the case of `CC1(C(=O)NC2CCCC2)CCC(=O)N1Cc1cccs1` (centres undefined), the cell number change was determined as 9.96%. Under setting [2], the AC50 is 29.1 µM [rising, single point].
`Cc1ccc(Nc2c([N+](=O)[O-])ccc3nonc23)cc1C`: the cell number change was -8.33%. In addition, under setting [2], the AC50 is 29.1 µM [rising, single point].
As for `COC(=O)[C@@H]1C[C@]2(OC(=O)c3ccccc3)C=CC(=O)C[C@@H]2N1C(=O)OCc1ccccc1`, the cell number change was determined as 0.484%. Also, under setting [2], the AC50 is 29.1 µM [falling, single point].
In the case of `CCCc1ccc(-c2cc(NC(=O)CSc3n[nH]c(N)n3)n(-c3ccccc3)n2)cc1`, the cell number change is -11.4%. The AC50 under setting [2] was 0.00651 µM [rising, full curve, poor fit].
As for `CCOC(=O)c1oc2ccc(S(=O)(=O)Nc3ccc4c(c3)n(C)c(=O)n4C)cc2c1C`, the concentration at half-maximal activity (AC50) under setting [1] was 0.164 µM [rising, full curve].
Consider `O=C(CSc1nc2ccccc2s1)NCCCN1CCOCC1`, for which the cell number change was 38.6%. Also, under setting [1], the AC50 is 0.92 µM [rising, partial curve]. For the same compound, under setting [2], the AC50 was 2.06 µM [rising, partial curve].
For `Cc1ccc(S(=O)(=O)CCC(=O)OCC(=O)N2c3ccccc3NC(=O)C2(C)C)cc1`, the cell number change was determined as 2.43%. Besides, the AC50 under setting [2] is 29.1 µM [falling, single point].
On to `Cc1cc(C(=O)O)ccc1-c1ccc(/C=C2\NC(=O)N(Cc3ccc(F)cc3)C2=O)o1`, for which the cell number change came to 46.9%. Also, the AC50 under setting [1] was 1.3 µM [rising, partial curve]. Besides, the AC50 under setting [2] was 8.2 µM [rising, partial curve].
In the case of `COc1ccc(C2C(C(C)=O)=C(O)C(=O)N2c2nccs2)cc1` (centres undefined), the cell number change was -43.2%. Under setting [1], the AC50 was 1.16 µM [falling, full curve]. Moreover, the AC50 under setting [2] is 3.66 µM [falling, full curve].
For `O=C(Nc1ccc(Cl)c(S(=O)(=O)N2CCCCC2)c1)c1cnccn1`, the cell number change stood at 2.08%. Further, under setting [1], the AC50 was 0.13 µM [falling, full curve, poor fit].
Take `CCOc1ccc(C(C(=O)NCC2CCCO2)N(CCc2cccc(C)c2)C(=O)c2snc(C(N)=O)c2N)cc1` (centres undefined): the cell number change is -9.68%. For the same compound, the AC50 under setting [2] was 25.9 µM [falling, partial curve].
For the compound `CC(=O)O[C@H]1CSC[C@H]1NC(=O)c1ccccc1`, the cell number change was -8.78%. In addition, the AC50 under setting [1] was 5.17 µM [falling, partial curve]. Besides, the AC50 under setting [2] is 4.11 µM [falling, partial curve].
Take `O=C(NCc1ccccc1Cl)c1ccc2c(c1)SC1=NS(=O)(=O)CCN12`: the cell number change was found to be 91.4%. In addition, under setting [1], the AC50 is 0.00517 µM [falling, full curve, poor fit]. In addition, the AC50 under setting [2] was 0.00461 µM [falling, full curve, poor fit].
As for `CCOC(=O)CC(C#N)c1cn(C)c2ccccc12` (centres undefined), the cell number change was determined as 40.3%. Besides, the AC50 under setting [1] was 25.9 µM [rising, single point].
Take `COc1ccc(C2=NN(C(=O)C(O)c3ccccc3)C(O)(C(F)(F)F)C2)cc1` (centres undefined): the cell number change stood at 5.77%. In addition, the AC50 under setting [2] was 0.651 µM [rising, full curve].
For `O=Nc1c(O)n(Cc2cccc(C(F)(F)F)c2)c2ccccc12`, the cell number change was -28%. Also, the AC50 under setting [2] was 10.3 µM [falling, partial curve, poor fit].
Turning to `COc1cc(C(C)=O)ccc1OCC(=O)Nc1ccccc1N1CCCC1`, the cell number change was -32.8%. Further, under setting [1], the AC50 is 10.3 µM [falling, partial curve]. The concentration at half-maximal activity (AC50) under setting [2] is 8.2 µM [falling, partial curve].
Take `COc1cc2c(c(OC)c1OC)-c1c(cc3c(c1OC)OCO3)C[C@H](C)[C@@](C)(O)C2`: the cell number change was determined as 16.5%. The AC50 under setting [2] was 29.1 µM [rising, single point].
In the case of `COc1ccc(C(=O)n2nc(C)cc2Nc2ccccc2)cc1`, the cell number change was determined as 38.7%.
In the case of `COc1cc(CCC(=O)OCC(=O)Nc2c(F)cccc2F)cc(OC)c1OC`, the cell number change amounted to 2.94%. Further, under setting [2], the AC50 was 0.00517 µM [falling, full curve, poor fit].
Turning to `CCCCN(C)CCCNC(=O)c1cc(Nc2ccc(OC)c(OC)c2)nc2ccccc12`, the cell number change was found to be 18.3%. Further, the AC50 under setting [1] was 0.0517 µM [rising, full curve, poor fit].
`Cc1cc(=S)c2ccccc2[nH]1`: the cell number change was 17%. The half-maximal activity concentration (AC50) under setting [2] is 4.11 µM [rising, full curve].
Turning to `Cn1c(-c2ccc(C=O)s2)nc2ccccc21`, the cell number change was -14.7%. Besides, the AC50 under setting [1] is 0.116 µM [falling, full curve]. For the same compound, under setting [2], the AC50 was 0.651 µM [falling, full curve].
Regarding `COc1ccc(NC(=S)NC(=O)/C=C/c2ccc(F)cc2)cc1`, the AC50 under setting [1] is 6.51 µM [rising, single point].
In the case of `CC1=CSC2=NC(=O)/C(=C\c3cccn3-c3ccc([N+](=O)[O-])cc3)C(=N)N12`, the cell number change was -48.6%. For the same compound, under setting [1], the half-maximal activity concentration (AC50) was 18.4 µM [falling, partial curve, poor fit]. For the same compound, the AC50 under setting [2] is 6.51 µM [falling, partial curve, poor fit].
In the case of `C=CCNC(=O)Nc1ccc(OCC)cc1`, under setting [2], the AC50 is 0.0411 µM [falling, partial curve, poor fit].
As to `CCn1c(C(O)c2cc(OC)c(OC)c(OC)c2)nc2ccccc21` (centres undefined), the cell number change was -12.6%. Further, under setting [2], the AC50 is 14.6 µM [falling, partial curve, poor fit].
`COc1ccc(Cl)cc1NC(=O)CCn1cnc2ccccc2c1=O`: the cell number change was -12.7%. Moreover, under setting [2], the AC50 was 1.3 µM [rising, full curve, poor fit].
Turning to `ClC1(Cl)CC1CSc1ncn[nH]1` (centres undefined), under setting [2], the AC50 is 2.31 µM [falling, partial curve].
On the same count and under the same terms, in the case of `Cc1nc(N2CCCCC2)sc1C(=O)c1ccc(Cl)c([N+](=O)[O-])c1` it was 6.51 µM [falling, partial curve, poor fit].
`CCCNC(=S)Nc1ccc(Nc2ccccc2)cc1`: the cell number change is -38.4%. Further, the half-maximal activity concentration (AC50) under setting [1] was 23.1 µM [falling, single point]. Further, the AC50 under setting [2] was 29.1 µM [falling, single point].
For the compound `CC1=C(C(=O)OC(C)C)C(c2ccc(C)o2)C(C(=O)OC(C)C)=C(C)N1`, the cell number change came to 9.71%.
Regarding `CC(=O)N1CCc2c(sc(NC(=O)C3CCCN3S(=O)(=O)c3cccs3)c2C(N)=O)C1` (centres undefined), under setting [1], the concentration at half-maximal activity (AC50) is 0.58 µM [rising, full curve].
With `COc1cccc(NC(=O)CN(C)C(=O)/C=C/c2cc(OC)ccc2OC)c1`, the cell number change was determined as 22.7%. Also, the AC50 under setting [2] was 0.206 µM [rising, full curve, poor fit].
For the compound `CCc1ccc(C(=O)Nc2cc(C)on2)o1`, the cell number change is -3.48%. Under setting [2], the AC50 is 0.58 µM [rising, single point].
Take `CNC1=CC(=O)CC(c2ccccc2)C1` (centres undefined): the cell number change is -6.87%. The AC50 under setting [2] is 2.06 µM [falling, full curve].
As to `Cc1nc(-c2cccc(S(=O)(=O)N3CCC(C)CC3)c2)cs1`, the cell number change is -23.2%.
Turning to `Cc1ccc(OCCn2c(NC(=O)c3ccco3)nc3ccccc32)cc1`, the cell number change is -11.1%. Further, the AC50 under setting [2] was 1.84 µM [rising, partial curve].
`Cc1ccnc2nc(C(=O)N3CCN(c4ccc(F)cc4)CC3)nn12`: the cell number change was determined as 7.59%. Further, the AC50 under setting [2] was 16.4 µM [rising, single point].
Take `COc1ccccc1N1CCN(Cc2ccc(Br)o2)CC1`: under setting [1], the AC50 is 0.13 µM [falling, full curve, poor fit].
